The list shows a part of the results. These are further read-outs of the screen, such as a control signal, another cell line or another target. No call is given for them. Compounds called inactive in the main read-out are mostly missing here. Words in brackets tell the shape of the fitted curve; partial curves, single points and poor fits give uncertain potencies.
assay: IkB Signaling; conditions: ABC-DLBCL IkBa-CBG/CBR dual luciferase ratio (green luciferase fused to IkBa over red control in OCI-Ly3 lymphoma cells), 4 h; measured here: control luc red channel unless noted
Procedure, shortened: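 Luminescence ratio of IκBα-fused green versus native red beetle luciferase in OCI-Ly3 cells, 4 h post-doxycycline with compound; red signal alone, scaled from basal (0%) to zero light (-100%), flagged nonspecific or cytotoxic effects.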

Row | Structure (SMILES) | AC50
1 | CCOC(=O)CSc1nc2ccccc2c(=O)n1NC(=O)c1ccccc1 | 12.6 µM [falling, partial curve]
2 | Cn1nccc1C(=O)OCC(=O)Nc1nc(-c2ccccc2)cs1 | 0.0631 µM [falling, full curve]
3 | CCCCC(=O)Nc1ccc2nc(SCC(=O)N3CCc4ccccc43)sc2c1 | 7.94 µM [falling, full curve]
4 | CN1C(=O)CSc2ccc(NC(=O)NCCC3=CCCCC3)cc21 | 39.8 µM [falling, single point]
5 | CCOc1ccc(-n2cc(-c3ccccc3)c3c(NCCc4ccccc4)ncnc32)cc1 | 1 µM [rising, partial curve]
6 | Cc1ccc(Nc2ccc3cc(S(=O)(=O)N4CCC(C)CC4)ccc3n2)c(Cl)c1 | 3.16 µM [rising, full curve]
7 | O=C(CCc1ccccc1)Nc1ccc(Cl)cn1 | 12.6 µM [falling, partial curve]
8 | CCOC(=O)N1CCc2c(sc3c2c(=O)n(Cc2ccccc2)c(=O)n3CC(=O)Nc2cccc(CC)c2)C1 | 6.31 µM [falling, partial curve]
9 | Cc1noc(-c2ccc(-c3noc(-c4ccc(F)cc4)n3)cc2)n1 | 2.51 µM [rising, partial curve]
10 | O=C(CCCn1c2ccccc2c(=O)c2ccccc21)Nc1cccc(Cl)c1 | 10 µM [falling, partial curve]
11 | COc1cccc(CNC(=O)c2cc3c(-c4ccccc4F)nn(C)c3s2)c1 | 3.98 µM [falling, full curve]
12 | O=C(NCCc1ccc(Cl)cc1)c1c2c(nc3ccccc13)C(=O)N(C1CCCCC1)C2 | 20 µM [falling, single point]
13 | O=S(=O)(c1ccc(Br)s1)N1CCN(c2cccc(C(F)(F)F)c2)CC1 | 6.31 µM [falling, partial curve]
14 | COCCn1c(SCC(=O)Nc2cc(Cl)ccc2OC)nc2c([nH]c3ccccc32)c1=O | 0.01 µM [rising, full curve, poor fit]
15 | COc1ccc(CCNC(=O)CCSc2nc(-c3ccco3)cc(C(F)(F)F)n2)cc1OC | 25.1 µM [falling, partial curve]
16 | COc1cccc(NC(=O)NC2(C(F)(F)F)Oc3ccccc3O2)c1 | 12.6 µM [falling, partial curve]
17 | COc1ccc(CC(=O)Nc2c(C(=O)N3CCN(c4ccccc4)CC3)oc3ccccc23)cc1OC | 15.8 µM [falling, partial curve]
18 | COc1cc(C(CC(=O)Nc2ccc(C)c(F)c2)N2Cc3ccccc3C2=O)cc(OC)c1OC (stereo unspecified) | 0.0631 µM [rising, full curve, poor fit]
19 | CCN(CC)c1ncnc2c1cnn2-c1cc(Cl)ccc1C | 25.1 µM [falling, single point]
20 | O=C1OCC2=C1C(c1cccc(Cl)c1)CC(=O)N2c1ccc(C(F)(F)F)cc1 (stereo unspecified) | 12.6 µM [falling, single point]
21 | CCOc1ccccc1NC(=O)C1CCN(S(=O)(=O)c2c(C)noc2/C=C/c2ccco2)CC1 | 25.1 µM [rising, partial curve, poor fit]

Row | Structure (SMILES) | AC50
22 | COc1cc(OC)cc(-c2cc3nc(C)c(CCC(=O)NCCc4cccc(C)c4)c(C)n3n2)c1 | 15.8 µM [falling, single point]
23 | COc1cc(NC(=O)Cn2nc(C(F)(F)F)c3c2CCC3)cc(OC)c1OC | 10 µM [falling, partial curve]
24 | COc1ccc(OC)c(CNC(=O)c2ccc(N3Cc4ccccc4Oc4ncccc43)s2)c1 | 1.58 µM [falling, full curve]
25 | COc1cccc(-c2nnc(SCc3ccc(C#N)cc3)n2Cc2ccco2)c1 | 12.6 µM [falling, partial curve]
26 | COc1ccccc1OCc1ccc(C(=O)Nc2ccncc2)o1 | 10 µM [falling, partial curve]
27 | COc1ccc2[nH]c3c(c2c1)CCN(C(=O)CCC1CCCC1)C3c1ccc(F)cc1 (stereo unspecified) | 25.1 µM [falling, single point]
28 | Cc1cccc(Cn2c(-c3ccccc3)nc3ccccc32)c1 | 20 µM [falling, single point]
29 | O=C(CSc1nccn1-c1ccc(F)cc1)Nc1nc2ccccc2s1 | 20 µM [falling, partial curve]
30 | O=C(CC1N=C2c3ccccc3N=C(SCc3ccc(F)cc3)N2C1=O)NCCc1ccccc1 (stereo unspecified) | 7.94 µM [falling, single point]
31 | c1ccc(CNc2ccc3ccccc3n2)nc1 | 20 µM [falling, partial curve]
32 | CC(C)(C)OC(=O)N1CCC(c2c(C(=O)N3CCN(c4ccccn4)CC3)cnn2-c2ccc(F)cc2F)CC1 | 12.6 µM [falling, partial curve]
33 | CCn1c(=O)c2cc(C(=O)NCc3cc(OC)ccc3OC)sc2c2ccccc21 | 7.94 µM [falling, full curve]
34 | COc1ccc(NC(=O)C2CCCN(S(=O)(=O)c3c(C)[nH]c(=O)[nH]c3=O)C2)cc1OC (stereo unspecified) | 0.251 µM [rising, full curve, poor fit]
35 | Cc1cc(C)nc(N2CCCC(C(=O)Nc3ccc4nc(C)c(C)nc4c3)C2)n1 (stereo unspecified) | 12.6 µM [falling, partial curve]
36 | COc1ccc(NC(=O)c2oc3ccccc3c2NC(=O)c2cc(=O)c3cc(Cl)ccc3o2)cc1 | 2.51 µM [rising, partial curve]
37 | COC(=O)c1c(NC(=O)c2ccc(OC)cc2OC)sc2c1CCCCC2 | 39.8 µM [falling, single point]
38 | O=c1oc(-c2cccnc2)nc2ccccc12 | 15.8 µM [falling, partial curve]
39 | Cc1cccc(C(=O)Nc2cc3c(cc2C)n(C)c(=O)n3C)c1 | 20 µM [rising, partial curve]
40 | O=C(Nc1sc2c(c1C(=O)NCc1ccco1)CCCC2)c1cc(=O)c2cc(Cl)ccc2o1 | 10 µM [falling, partial curve]
41 | O=C(CCCCn1c(=O)c2ccccc2n(Cc2cccc(F)c2)c1=O)NCCc1ccccc1 | 0.126 µM [rising, full curve, poor fit]

Reformatted with tabs: two of the compounds above.
Row	Structure (SMILES)	AC50
36	COc1ccc(NC(=O)c2oc3ccccc3c2NC(=O)c2cc(=O)c3cc(Cl)ccc3o2)cc1	2.51 µM [rising, partial curve]
37	COC(=O)c1c(NC(=O)c2ccc(OC)cc2OC)sc2c1CCCCC2	39.8 µM [falling, single point]

From PubChem BioAssay AID445 (National Center for Advancing Translational Sciences (NCATS), 2006)
